Test results as given in PubChem BioAssay AID2685 (National Center for Advancing Translational Sciences (NCATS), 2010).
Some of the results follow. These are further read-outs of the screen, such as a control signal, another cell line or another target. No call is given for them. Most of these compounds were active or inconclusive in the main read-out, so they are no random draw. Potencies come from curve fits of mixed quality, noted in brackets.

Experiment: qHTS Assay for Lipid Storage Modulators in Drosophila S3 Cells;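 on cell number change: cells counted by Cell Tracker Red CMTPX staining in the red channel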
Details: BODIPY lipid droplet fluorescence, 18-24 h; for cell number change: measured here: cell count max response, cells fed with added oleic acid
How it was run: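 Laser-scanning cytometry quantifies lipid droplet accumulation (500–530 nm total intensity; droplet/cell object ratio) in oleic acid-fed (400 uM added) Drosophila S3 cells treated with a concentration series. 20 uM Triacsin C defined 100% inhibition.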

[1] = measured here: lipid fluorescence (Fed channel) AC50, cells fed with added oleic acid
[2] = measured here: cell number channel AC50, cells fed with added oleic acid

Compound	AC50 [1]	cell number change	AC50 [2]
CCOC(=O)c1ccccc1NC(=O)Nc1ccc(OC)c(OC)c1	0.82 µM [falling, single point]		
Cc1c2cnn(CC(=O)Nc3c(F)c(F)cc(F)c3F)c(=O)c2c(C)n1Cc1ccc(F)cc1		26.2%	
O=C(CN1CCN(Cc2ccccc2)CC1)N/N=C/c1cccs1	4.11 µM [falling, single point]	8.45%	3.66 µM [falling, single point]
CC1CC1C(=O)OCC(=O)NC(=O)c1ccccc1 (stereo not given)	0.651 µM [rising, partial curve]	0.226%	
CCOC(=O)[C@H](CCc1ccccc1)N[C@@H](C)C(=O)N1C(C(=O)O)C[C@@H]2CCC[C@@H]21 (stereo not given in full)	9.2 µM [rising, partial curve]	33.5%	13 µM [rising, single point]
CCOc1cc(-c2nc(-c3ccncc3)no2)cc(OCC)c1OCC	0.13 µM [rising, full curve, poor fit]	2.92%	
C#CC[N+](CC)(CC)CC#Cc1cccc(Cl)c1	18.4 µM [falling, single point]	0.64%	
O=C(CN1C(=O)NC2(CCCC2)C1=O)OCc1ccc(Cl)cc1Cl	29.1 µM [falling, single point]	-75%	29.1 µM [falling, single point]
CN(C(=O)COC(=O)c1ccc([N+](=O)[O-])cc1)c1ccccc1		40.2%	
COc1cc(C2C(C(=O)c3ccco3)=C(O)C(=O)N2Cc2ccccc2)ccc1O (stereo not given)		-20.5%	
CCN(CC)CCNC(=O)c1ccc(NC(=O)c2ccc(F)cc2)cc1	0.326 µM [falling, full curve, poor fit]	-31.8%	0.326 µM [falling, full curve]
COc1ccccc1CC(=O)N1CCN(c2cccc(Cl)c2)CC1		18.1%	
COc1cccc(NC(=O)CN(C)C(=O)CN2C(=O)NC3(CCCC3)C2=O)c1	11.6 µM [rising, partial curve, poor fit]	7.3%	
Cc1ccc2nc(C)cc(C(=O)N3CCCC(N4CCN(c5ccccc5C)CC4)C3)c2c1 (stereo not given)	0.112 µM [rising, full curve, poor fit]		
O=C1NCCCCC1NS(=O)(=O)c1cccc(C(F)(F)F)c1 (stereo not given)		4.23%	
Cc1cc(C)c(S(=O)(=O)Nc2ccc3[nH]c(=O)[nH]c3c2)c(C)c1		-1.83%	0.326 µM [rising, partial curve]
Cc1noc2ncnc(Oc3ccccc3Cl)c12		-30.4%	
O=C1N[C@@H](Cc2cnc[nH]2)C(=O)N2CCC[C@@H]12	29.1 µM [rising, single point]	-14.4%	0.0517 µM [falling, full curve, poor fit]
COc1ccccc1CN(C)C(=O)CSc1nnc(C2CC2)n1C1CC1		-7.51%	
COc1ccc2oc(C(=O)OCC(=O)NCc3ccco3)c(C)c2c1	29.1 µM [falling, single point]	-0.905%	

Quoted from the listing (two entries):
Compound	AC50 [1]	cell number change	AC50 [2]
C#CC[N+](CC)(CC)CC#Cc1cccc(Cl)c1	18.4 µM [falling, single point]	0.64%	
O=C(CN1C(=O)NC2(CCCC2)C1=O)OCc1ccc(Cl)cc1Cl	29.1 µM [falling, single point]	-75%	29.1 µM [falling, single point]

More compounds follow:

Compound	AC50 [1]	cell number change	AC50 [2]
COc1cc(CNC2CCC(C)C2)cc(OC)c1 (stereo not given)		-17.1%	
COc1cccc(NC(=O)c2ccccc2NS(C)(=O)=O)c1	0.13 µM [falling, full curve, poor fit]		
CCCCOC(=O)C(C#N)c1nc2ccccc2nc1N1CCOCC1 (stereo not given)		-27.6%	
COC(=O)c1ccc(CNC(=O)CNc2cc(C(F)(F)F)ccc2N2CCOCC2)cc1	0.00517 µM [rising, full curve, poor fit]	-22.5%	
O=C(NNC(=S)NCc1ccccc1)c1ccc2c(c1)OCO2	29.1 µM [falling, single point]	-60.7%	29.1 µM [falling, single point]
CNc1nc(C)c(C(=O)OCc2ccccc2)s1	2.06 µM [rising, full curve]	7.94%	
Cc1ccc(S(=O)(=O)N2CCC3(CC2)OCCO3)cc1	29.1 µM [rising, single point]	6.44%	
CCOc1ccc(NC(=O)CN(C)C(=O)C(C)N2C(=O)c3ccccc3C2=O)cc1OCC (stereo not given)	11.6 µM [rising, partial curve, poor fit]	-2.98%	
COc1cccc(OCC(=O)Nc2ccccc2-c2ccccc2)c1	1.84 µM [rising, partial curve]	19.8%	
Cc1ccc(-c2ccc(S(=O)(=O)Nc3cccnc3)cc2)cc1	29.1 µM [falling, single point]	17.6%	
CCn1c(=NC(=O)CCS(=O)(=O)c2ccccc2)sc2cccc(OC)c21	29.1 µM [falling, single point]	-33.2%	8.2 µM [falling, partial curve, poor fit]
Cc1csc(-c2cnn(-c3ccccc3)c2NC(=O)c2cccc(C(F)(F)F)c2)n1		27.6%	
FC(F)(F)c1cnc(-c2cnc(-c3ccccn3)nc2)c(Cl)c1	29.1 µM [rising, single point]	73.5%	29.1 µM [rising, single point]
O=C(Nc1cccc(NC(=O)c2ccccc2Cl)c1)c1cccs1	0.0058 µM [falling, full curve, poor fit]	-48.6%	20.6 µM [falling, partial curve, poor fit]
CCN(CC(=O)O)S(=O)(=O)c1cc(Cl)ccc1Cl		2.42%	
COCCNS(=O)(=O)c1cccc2cccnc12	6.51 µM [falling, single point]	0.451%	
Cc1oc(-c2ccccc2Cl)nc1CS(=O)(=O)CC(=O)NCCN1CCOCC1	0.259 µM [rising, full curve, poor fit]	4.61%	
O=C1N(c2ccccc2C(F)(F)F)O[C@@]1(c1ccccc1)C1CCCCC1	1.03 µM [falling, full curve, poor fit]	-31.5%	1.03 µM [falling, full curve, poor fit]
Cc1nonc1NC(=O)CSc1nc2c(C)cccc2cc1C#N	4.61 µM [rising, single point]		
O=C(CCC(=O)N1CCOCC1)NCCc1ccccc1	16.4 µM [rising, single point]	1.93%	
